Converted amounts (≈) assume the structure as drawn.
Assays:
Experiment in all cases: microbe, parasite or virus in culture
[1] = tested on: Streptococcus mutans (S.m., UA159); conditions: read-out: IC50, 50% inhibition on bacterial proliferation, UA159
[2] = tested on: Staphylococcus aureus (S.a); conditions: read-out: IC50, 50% inhibition on bacterial proliferation, S. a.
[3] = tested on: Pseudomonas aeruginosa (P.a.); conditions: read-out: IC50, 50% inhibition on bacterial proliferation, P. a.

CSc1ccc2c(c1)N(CCC1CCCCN1C)c1ccccc1S2 (stereo not drawn) [Thioridazine]
IC50 [1]: 12 µg/mL (≈ 32.4 µM) | IC50 [2]: 13 µg/mL (≈ 35.1 µM) | IC50 [3]: 104 µg/mL (≈ 281 µM)
